Measured values reported in the supplement of paper PMC7661543.
± gives the standard deviation of the averaged measurements. Differences between knockout arms are mostly noise.

Test system: SKBR3
Assay: relative cell number vs DMSO control (72 h) (% of DMSO); higher = less growth inhibition (more cells)
Protocol: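 QMAP-Seq: a pool of 5 breast cancer cell lines (ZR-75-1, SKBR3, HCC-38, MDA-MB-231, BT-20), each carrying 12 doxycycline-inducible Cas9 sgRNA perturbations (11 knockouts plus non-targeting sgNT), was treated with compounds for 72 h at four 10-fold doses (10 nM-10 uM or 1 nM-1 uM range). Barcodes were amplified and sequenced, and cell number was interpolated from 293T spike-in standard curves. The result is expressed as % of the median of DMSO wells. Two biological replicates.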

[1] = sgRNA knockout: sgATF3, 1000 nM
[2] = sgRNA knockout: sgATF3, 10000 nM
[3] = sgRNA knockout: sgATF4, 1000 nM
[4] = sgRNA knockout: sgATF4, 10000 nM
[5] = sgRNA knockout: sgATF6, 1000 nM
[6] = sgRNA knockout: sgATF6, 10000 nM
[7] = sgRNA knockout: sgATG7, 1000 nM
[8] = sgRNA knockout: sgATG7, 10000 nM
[9] = sgRNA knockout: sgERN1, 1000 nM
[10] = sgRNA knockout: sgERN1, 10000 nM
[11] = sgRNA knockout: sgHSF1, 1000 nM
[12] = sgRNA knockout: sgHSF1, 10000 nM
[13] = sgRNA knockout: sgHSF2, 1000 nM
[14] = sgRNA knockout: sgHSF2, 10000 nM
[15] = sgRNA knockout: sgKEAP1, 100 nM
[16] = sgRNA knockout: sgKEAP1, 1000 nM
[17] = sgRNA knockout: sgKEAP1, 10000 nM
[18] = sgRNA knockout: sgNFE2L2, 10 nM
[19] = sgRNA knockout: sgNFE2L2, 100 nM
[20] = sgRNA knockout: sgNFE2L2, 1000 nM
[21] = sgRNA knockout: sgNFE2L2, 10000 nM
[22] = sgRNA knockout: sgSLC35F2, 10 nM
[23] = sgRNA knockout: sgSLC35F2, 100 nM
[24] = sgRNA knockout: sgSLC35F2, 1000 nM
[25] = sgRNA knockout: sgSLC35F2, 10000 nM
[26] = sgRNA knockout: sgXBP1, 1000 nM
[27] = sgRNA knockout: sgXBP1, 10000 nM

COc1ccc(-c2ccc3c(N4CCOCC4)nc(N4C[C@@H](C)O[C@@H](C)C4)nc3n2)cc1CO gave a relative cell number (sgRNA knockout: sgATF3, 10 nM) of 103 ± 5.8, a relative cell number (sgRNA knockout: sgATF3, 100 nM) of 132 ± 25 and a relative cell number [1] of 93.9 ± 9.3. It also gave a relative cell number [2] of 45.7 ± 0.69, a relative cell number (sgRNA knockout: sgATF4, 10 nM) of 99.9 ± 14 and a relative cell number (sgRNA knockout: sgATF4, 100 nM) of 112 ± 32. For the same molecule, the relative cell number [3] was 74.6 ± 12, the relative cell number [4] was 45.5 ± 6.2 and the relative cell number (sgRNA knockout: sgATF6, 10 nM) was 88.5 ± 0.31. For the same molecule, the relative cell number (sgRNA knockout: sgATF6, 100 nM) was 99.8 ± 8.2, the relative cell number [5] was 77.6 ± 0.97 and the relative cell number [6] was 34.7 ± 1.2. For the same molecule, the relative cell number (sgRNA knockout: sgATG7, 10 nM) was 102 ± 40, the relative cell number (sgRNA knockout: sgATG7, 100 nM) was 101 ± 1.8 and the relative cell number [7] was 70.6 ± 5.7. The relative cell number [8] was 36.8 ± 3.8, the relative cell number (sgRNA knockout: sgERN1, 10 nM) was 89.4 ± 14 and the relative cell number (sgRNA knockout: sgERN1, 100 nM) was 109 ± 33. The relative cell number [9] was 69 ± 2.5, the relative cell number [10] was 40.6 ± 4 and the relative cell number (sgRNA knockout: sgHSF1, 10 nM) was 96.6 ± 15. For the same molecule, the relative cell number (sgRNA knockout: sgHSF1, 100 nM) was 110 ± 11, the relative cell number [11] was 62.4 ± 26 and the relative cell number [12] was 43.3 ± 0.58. The relative cell number (sgRNA knockout: sgHSF2, 10 nM) was 102 ± 27, the relative cell number (sgRNA knockout: sgHSF2, 100 nM) was 110 ± 21 and the relative cell number [13] was 82 ± 11. For the same molecule, the relative cell number [14] was 45.3 ± 8, the relative cell number (sgRNA knockout: sgKEAP1, 10 nM) was 84.9 ± 24 and the relative cell number [15] was 96.8 ± 6.3. It also gave a relative cell number [16] of 69.8 ± 19, a relative cell number [17] of 41 ± 1.6 and a relative cell number [18] of 99.2 ± 6.5. It also gave a relative cell number [19] of 117 ± 14, a relative cell number [20] of 65.6 ± 2.3 and a relative cell number [21] of 45 ± 4.3. The relative cell number [22] was 102 ± 37, the relative cell number [23] was 112 ± 20 and the relative cell number [24] was 74.3 ± 9.4. The relative cell number [25] was 41.4 ± 3.3, the relative cell number (sgRNA knockout: sgXBP1, 10 nM) was 91.4 ± 24 and the relative cell number (sgRNA knockout: sgXBP1, 100 nM) was 128 ± 30. For the same molecule, the relative cell number [26] was 70.4 ± 3.7 and the relative cell number [27] was 39.9 ± 5.3.
Work on C[C@@H](Oc1cc(-n2cnc3ccc(CN4CCN(C)CC4)cc32)sc1C(N)=O)c1ccccc1C(F)(F)F yielded a relative cell number (sgRNA knockout: sgATF3, 10 nM) of 17.7 ± 9.7, a relative cell number (sgRNA knockout: sgATF3, 100 nM) of 11.8 ± 0.6 and a relative cell number [1] of 12.6 ± 2.6. It also gave a relative cell number [2] of 32.1 ± 1.7, a relative cell number (sgRNA knockout: sgATF4, 10 nM) of 16.8 ± 5.5 and a relative cell number (sgRNA knockout: sgATF4, 100 nM) of 8 ± 1.1. The relative cell number [3] was 23.7 ± 5.2, the relative cell number [4] was 26.1 ± 8.1 and the relative cell number (sgRNA knockout: sgATF6, 10 nM) was 11.2 ± 4.2. For the same molecule, the relative cell number (sgRNA knockout: sgATF6, 100 nM) was 12.9 ± 3.6, the relative cell number [5] was 20.7 ± 2.5 and the relative cell number [6] was 29.5 ± 0.86. It also gave a relative cell number (sgRNA knockout: sgATG7, 10 nM) of 16 ± 6.5, a relative cell number (sgRNA knockout: sgATG7, 100 nM) of 10.7 ± 4.9 and a relative cell number [7] of 20.1 ± 7.9. It also gave a relative cell number [8] of 19 ± 0.59, a relative cell number (sgRNA knockout: sgERN1, 10 nM) of 18.5 ± 4.9 and a relative cell number (sgRNA knockout: sgERN1, 100 nM) of 13.9 ± 2. The relative cell number [9] was 9.72 ± 1.6, the relative cell number [10] was 33.5 ± 3.5 and the relative cell number (sgRNA knockout: sgHSF1, 10 nM) was 17.3 ± 4.4. The relative cell number (sgRNA knockout: sgHSF1, 100 nM) was 6.08 ± 2.2, the relative cell number [11] was 23.7 ± 5.4 and the relative cell number [12] was 20.6 ± 1.4. The relative cell number (sgRNA knockout: sgHSF2, 10 nM) was 22.8 ± 3.5, the relative cell number (sgRNA knockout: sgHSF2, 100 nM) was 15.3 ± 8 and the relative cell number [13] was 26.7 ± 4.9. It also gave a relative cell number [14] of 30.4 ± 2.1, a relative cell number (sgRNA knockout: sgKEAP1, 10 nM) of 13.2 ± 3.4 and a relative cell number [15] of 8.6 ± 2.9. The relative cell number [16] was 14.9 ± 5, the relative cell number [17] was 22.5 ± 1.2 and the relative cell number [18] was 16.7 ± 7. It also gave a relative cell number [19] of 7.16 ± 1.4, a relative cell number [20] of 20.1 ± 2.1 and a relative cell number [21] of 28.6 ± 4.3. The relative cell number [22] was 13.1 ± 8.3, the relative cell number [23] was 12.3 ± 3.8 and the relative cell number [24] was 16.8 ± 4.9. The relative cell number [25] was 26.3 ± 4.7, the relative cell number (sgRNA knockout: sgXBP1, 10 nM) was 23.2 ± 1.9 and the relative cell number (sgRNA knockout: sgXBP1, 100 nM) was 12 ± 3.2. The relative cell number [26] was 17.2 ± 6.1 and the relative cell number [27] was 22.2 ± 7.9.
C[C@@]1(C(=O)Nc2ccc(F)nc2)CCCN1c1nc(Nc2cc(C3CC3)n[nH]2)c2cccn2n1 showed a relative cell number (sgRNA knockout: sgATF3, 10 nM) of 81.7 ± 19, a relative cell number (sgRNA knockout: sgATF3, 100 nM) of 91.7 ± 9.9 and a relative cell number [1] of 60.3 ± 4.9. It also gave a relative cell number [2] of 73.2 ± 30, a relative cell number (sgRNA knockout: sgATF4, 10 nM) of 98.5 ± 10 and a relative cell number (sgRNA knockout: sgATF4, 100 nM) of 82.8 ± 7.5. For the same molecule, the relative cell number [3] was 72.7 ± 6.1, the relative cell number [4] was 59.4 ± 5 and the relative cell number (sgRNA knockout: sgATF6, 10 nM) was 74.8 ± 14. It also gave a relative cell number (sgRNA knockout: sgATF6, 100 nM) of 94.6 ± 3, a relative cell number [5] of 54.8 ± 7.9 and a relative cell number [6] of 76 ± 29. The relative cell number (sgRNA knockout: sgATG7, 10 nM) was 95.4 ± 30, the relative cell number (sgRNA knockout: sgATG7, 100 nM) was 94.3 ± 25 and the relative cell number [7] was 84.3 ± 26. The relative cell number [8] was 72.1 ± 22, the relative cell number (sgRNA knockout: sgERN1, 10 nM) was 76.4 ± 27 and the relative cell number (sgRNA knockout: sgERN1, 100 nM) was 107 ± 34. The relative cell number [9] was 73.3 ± 22, the relative cell number [10] was 63.4 ± 1.1 and the relative cell number (sgRNA knockout: sgHSF1, 10 nM) was 88.6 ± 9. For the same molecule, the relative cell number (sgRNA knockout: sgHSF1, 100 nM) was 77.5 ± 28, the relative cell number [11] was 67.9 ± 4.4 and the relative cell number [12] was 67.2 ± 0.5. For the same molecule, the relative cell number (sgRNA knockout: sgHSF2, 10 nM) was 98.2 ± 20, the relative cell number (sgRNA knockout: sgHSF2, 100 nM) was 87.7 ± 7.7 and the relative cell number [13] was 79.5 ± 10. It also gave a relative cell number [14] of 64.1 ± 13, a relative cell number (sgRNA knockout: sgKEAP1, 10 nM) of 99.6 ± 22 and a relative cell number [15] of 96.1 ± 36. For the same molecule, the relative cell number [16] was 67.3 ± 7.1, the relative cell number [17] was 59.2 ± 5.9 and the relative cell number [18] was 83.3 ± 9.1. For the same molecule, the relative cell number [19] was 78.8 ± 17, the relative cell number [20] was 79.2 ± 20 and the relative cell number [21] was 68.3 ± 44. The relative cell number [22] was 103 ± 15, the relative cell number [23] was 82.6 ± 4.8 and the relative cell number [24] was 82.4 ± 19. The relative cell number [25] was 72.1 ± 9.3, the relative cell number (sgRNA knockout: sgXBP1, 10 nM) was 114 ± 4.6 and the relative cell number (sgRNA knockout: sgXBP1, 100 nM) was 78.6 ± 26. It also gave a relative cell number [26] of 64.2 ± 5.8 and a relative cell number [27] of 80 ± 7.1.
